Test results reported in US20200055918A1, “NOVEL MINOR HISTOCOMPATIBILITY ANTIGENS AND USES THEREOF” (UNIVERSITÉ DE MONTRÉAL, priority 2017, published 2020).
“And” between values parts separate entries of the source, which are not always exact repeats. Equal entries are not always repeated. For part of these data: What was measured is the transcript of the gene that encodes the chain shown.

What was measured:
Set-up in all cases: species or system human
B-LCL cells [1] = assay: MiHA detection by LC-MS/MS after peptide isolation by mild acid elution (MAE); details: second symbol of IP/MAE
B-LCL cells [2] = assay: MiHA detection by LC-MS/MS after peptide isolation by immunoprecipitation (IP, W6/32); details: first symbol of IP/MAE
[3] = tested on: genes coding for the identified MiHAs; assay: Ratio of MiHA gene expression in bone marrow compared to skin, public RNA-Seq data; details: relative BM/skin expression of the MiHA-coding transcripts
[4] = tested on: MiHA-coding genes in AML samples; assay: Expression (RPKM) of MiHA-coding genes in 179 AML samples, TCGA RNA-Seq; details: mean MiHA gene expression in primary AML samples from TCGA

Row | Substance | IP (identified by immunoprecipitation) (B-LCL cells [2]) | also measured
1 | EL/IDPSNTKALY (85) | ✓/✓ | MAE (identified by mild acid elution) (B-LCL cells [1]): ✓/✓
2 | RPRARYYI/VQV (95) | ✓/✓ | MAE (identified by mild acid elution) (B-LCL cells [1]): ✓/✓
3 | EEV/LKLRQQL (84) | ✓ | 
4 | VPREYI/VRAL (94) | ✓/✓ | MAE (identified by mild acid elution) (B-LCL cells [1]): ✓/✓
5 | IS/PRAAAERSL (88) | ✓/✓ | MAE (identified by mild acid elution) (B-LCL cells [1]): ✓/✓
6 | TPRPIQSSP/L (102) | ✓ | 
7 | SP/LYPRVKVDF (115) | ✓/✓ | MAE (identified by mild acid elution) (B-LCL cells [1]): ✓/✓
8 | YTDSSSI/VLNY (125) | ✓ | 
9 | LARPA/VSAAL (111) | ✓/✓ | MAE (identified by mild acid elution) (B-LCL cells [1]): ✓/✓
10 | H/RESPIFKQF (92) |  | MAE (identified by mild acid elution) (B-LCL cells [1]): ✓
11 | RP/LRKEVKEEL (114) |  | MAE (identified by mild acid elution) (B-LCL cells [1]): ✓
12 | RPR/HPEDQRL (109) | ✓ | 
13 | SPGK/NERHLNAL (126) | ✓ | 
14 | APKKPTGA/VDL (82) | ✓ | 
15 | NSEEHSAK/RY (121) | ✓ | 
16 | KEMDSDQQR/T/KSY (105) | ✓ | 
17 | RPRAPRES/NAQAI (91) | ✓ | 
18 | TEAG/AVQKQW (108) | ✓ | 
19 | M/L/VELQQKAEF (106) | ✓ | 
20 | R/QPRAPRESAQAI (113) | ✓ | 

Row | Substance | IP (identified by immunoprecipitation) (B-LCL cells [2]) | also measured
21 | NLDKNTV/MGY (98) | ✓ | 
22 | TPRNTYKMTSL/V | ✓ | 
23 | EEVTS/T/ASEDKRKTY (117) | ✓ | 
24 | LPSDDRGP/S/TL (89) | ✓ | 
25 | KVKTSLNEQM/TY (KVKTSLNEQMY) [MiHA No. 38] |  | BM/skin ratio [3]: 3.82; AMLs (RPKM) [4]: 23.41 RPKM
26 | A/SEIEQKIKEY [MiHA No. 2] |  | BM/skin ratio ([3]; listed as RASSF1-1A/S): 2.54 and 2.39; AMLs (RPKM) [4]: 49.38 RPKM
27 | RPPG/EGSGPLL/H/R/P (RPPGGSGPLL) [MiHA No. 58] |  | BM/skin ratio [3]: 4.42; AMLs (RPKM) [4]: 25.51 RPKM
28 | FT/R/IESRVSSQQTVSY (127) | ✓ | 
29 | EEA/T/SPSQQGF (129) | ✓ | 
30 | FSEPRAI/VFY (118) | ✓ | 
31 | GTLSPSLGNSSI/VLK (GTLSPSLGNSSILK) [MiHA No. 31] |  | BM/skin ratio [3]: 2.42; AMLs (RPKM) [4]: 28.38 RPKM
32 | GED/GKGIKAL (GEDKGIKAL) [MiHA No. 29] |  | BM/skin ratio [3]: 4.27; AMLs (RPKM) [4]: 19.89 RPKM
33 | AE/AIQEKKEI (AEIQEKKEI) [MiHA No. 6] |  | BM/skin ratio [3]: 2.14; AMLs (RPKM) [4]: 3.14 RPKM
34 | YYRTNHT/I/SVM (104) | ✓ | 
35 | S/GEMDRRNDAW (123) | ✓ | 
36 | TQR/SPADVIF (TQRPADVIF) [MiHA No. 76] |  | BM/skin ratio [3]: 3.08; AMLs (RPKM) [4]: 56.09 RPKM
37 | S/YGGPLRSEY (107) | ✓ | 
38 | QERSFQEY/N [MiHA No. 54] |  | BM/skin ratio [3]: 2.24; AMLs (RPKM) [4]: 8.15 RPKM
39 | RPPPP/SPAWL (RPPPPPAWL) [MiHA No. 59] |  | BM/skin ratio [3]: 2.17; AMLs (RPKM) [4]: 17.23 RPKM
